Values of other authors, collected in patent US4760029A, “Assay for D-1 antagonistic activity of neuroleptic drugs” (Schering Corporation, priority 1984, dated 1988).

Tested on: D-1 receptor
Conditions: Life Sciences 23, 551 (1978)

| Substance | non-specific binding as share of total binding |
| --- | --- |
| ^3 H-cis-(Z)-flupentixol [^3 H-flupentixol] | ~74% |
| ^3 H-cis-(Z)-piflutixol [^3 H-piflutixol] | about 66% |
